# Some of the results follow.
# Chains of the proteins cited; added tags and fusions are not shown. Lines headed by an entry give the natural chain unless they say otherwise; changes in a name come on top.
# UniProt A5A3E0, whole entry, looked up: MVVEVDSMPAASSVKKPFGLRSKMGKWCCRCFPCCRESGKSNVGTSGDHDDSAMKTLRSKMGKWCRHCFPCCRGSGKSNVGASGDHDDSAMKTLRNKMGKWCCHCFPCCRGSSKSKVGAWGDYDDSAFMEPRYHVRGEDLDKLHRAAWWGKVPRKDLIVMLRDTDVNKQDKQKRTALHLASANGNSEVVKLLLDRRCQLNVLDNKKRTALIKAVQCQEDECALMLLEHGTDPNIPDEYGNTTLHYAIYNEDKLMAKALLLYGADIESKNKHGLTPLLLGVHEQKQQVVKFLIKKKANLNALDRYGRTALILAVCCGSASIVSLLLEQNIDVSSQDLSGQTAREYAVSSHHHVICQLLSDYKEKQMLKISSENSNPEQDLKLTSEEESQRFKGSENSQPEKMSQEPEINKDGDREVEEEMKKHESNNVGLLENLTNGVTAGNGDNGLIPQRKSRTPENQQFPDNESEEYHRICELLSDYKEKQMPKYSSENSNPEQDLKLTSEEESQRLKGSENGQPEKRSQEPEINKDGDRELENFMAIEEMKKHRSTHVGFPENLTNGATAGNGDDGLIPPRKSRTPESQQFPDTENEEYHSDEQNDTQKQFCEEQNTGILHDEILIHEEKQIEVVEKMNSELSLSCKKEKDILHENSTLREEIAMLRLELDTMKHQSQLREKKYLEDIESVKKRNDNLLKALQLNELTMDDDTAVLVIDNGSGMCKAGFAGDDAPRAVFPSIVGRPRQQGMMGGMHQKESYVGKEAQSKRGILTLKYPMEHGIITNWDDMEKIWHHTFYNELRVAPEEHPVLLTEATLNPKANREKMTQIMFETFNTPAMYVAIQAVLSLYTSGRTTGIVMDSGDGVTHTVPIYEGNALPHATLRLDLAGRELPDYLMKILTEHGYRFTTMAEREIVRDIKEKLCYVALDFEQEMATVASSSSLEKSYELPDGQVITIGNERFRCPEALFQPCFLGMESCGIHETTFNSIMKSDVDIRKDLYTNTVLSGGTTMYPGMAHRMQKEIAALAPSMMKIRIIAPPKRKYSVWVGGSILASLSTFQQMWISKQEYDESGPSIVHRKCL
# UniProt P56282: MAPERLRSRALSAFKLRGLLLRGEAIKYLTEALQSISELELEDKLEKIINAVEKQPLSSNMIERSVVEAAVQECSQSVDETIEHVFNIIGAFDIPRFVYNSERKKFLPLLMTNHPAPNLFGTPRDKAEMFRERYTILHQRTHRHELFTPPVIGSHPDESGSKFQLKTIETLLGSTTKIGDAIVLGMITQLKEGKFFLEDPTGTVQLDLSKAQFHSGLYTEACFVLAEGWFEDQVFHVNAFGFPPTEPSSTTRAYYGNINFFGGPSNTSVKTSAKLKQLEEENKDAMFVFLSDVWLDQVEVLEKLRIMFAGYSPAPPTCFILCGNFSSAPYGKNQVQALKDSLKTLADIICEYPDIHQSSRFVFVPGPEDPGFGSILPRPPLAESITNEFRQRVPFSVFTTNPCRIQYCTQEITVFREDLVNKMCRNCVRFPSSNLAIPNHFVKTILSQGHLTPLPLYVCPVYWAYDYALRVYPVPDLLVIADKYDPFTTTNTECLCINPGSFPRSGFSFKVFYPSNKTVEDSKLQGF
# UniProt Q9UHN1: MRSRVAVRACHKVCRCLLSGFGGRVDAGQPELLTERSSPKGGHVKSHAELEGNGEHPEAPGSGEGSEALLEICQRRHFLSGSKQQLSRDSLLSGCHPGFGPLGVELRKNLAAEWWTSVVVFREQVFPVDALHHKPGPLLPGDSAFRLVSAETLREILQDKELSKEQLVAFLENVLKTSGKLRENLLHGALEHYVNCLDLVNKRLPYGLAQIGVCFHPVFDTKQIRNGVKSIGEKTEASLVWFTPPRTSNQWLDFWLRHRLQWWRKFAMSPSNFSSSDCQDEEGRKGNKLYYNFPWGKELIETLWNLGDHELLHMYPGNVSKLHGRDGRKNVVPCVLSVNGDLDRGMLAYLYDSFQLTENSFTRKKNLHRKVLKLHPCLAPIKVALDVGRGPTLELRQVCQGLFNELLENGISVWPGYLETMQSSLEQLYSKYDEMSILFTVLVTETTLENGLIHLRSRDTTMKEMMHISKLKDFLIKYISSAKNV
# UniProt Q7Z4H8: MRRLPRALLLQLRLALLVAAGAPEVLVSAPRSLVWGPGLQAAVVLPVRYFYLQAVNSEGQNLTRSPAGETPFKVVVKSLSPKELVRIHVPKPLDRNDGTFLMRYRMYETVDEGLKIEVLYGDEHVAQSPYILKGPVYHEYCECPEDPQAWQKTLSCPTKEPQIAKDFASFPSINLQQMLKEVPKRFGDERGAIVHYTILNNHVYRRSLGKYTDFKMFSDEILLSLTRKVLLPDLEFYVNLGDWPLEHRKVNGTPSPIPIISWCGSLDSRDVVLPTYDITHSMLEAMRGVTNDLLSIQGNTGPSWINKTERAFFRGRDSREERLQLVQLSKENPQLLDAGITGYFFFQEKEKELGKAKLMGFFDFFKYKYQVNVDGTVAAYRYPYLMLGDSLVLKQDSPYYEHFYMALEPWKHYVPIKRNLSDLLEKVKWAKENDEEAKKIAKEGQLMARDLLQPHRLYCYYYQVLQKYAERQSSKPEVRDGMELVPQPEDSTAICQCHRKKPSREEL
# UniProt O15305: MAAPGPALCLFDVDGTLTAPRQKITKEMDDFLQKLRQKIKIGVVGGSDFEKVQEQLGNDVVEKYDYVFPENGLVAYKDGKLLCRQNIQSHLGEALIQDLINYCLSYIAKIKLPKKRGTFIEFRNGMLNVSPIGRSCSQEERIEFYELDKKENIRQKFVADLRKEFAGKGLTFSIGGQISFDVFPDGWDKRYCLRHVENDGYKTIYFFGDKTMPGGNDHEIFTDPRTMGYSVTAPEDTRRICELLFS
# UniProt Q9HCU8: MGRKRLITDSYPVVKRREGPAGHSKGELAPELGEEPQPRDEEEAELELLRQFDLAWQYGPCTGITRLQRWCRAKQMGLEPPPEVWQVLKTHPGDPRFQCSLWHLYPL
# UniProt P00747, whole entry, looked up: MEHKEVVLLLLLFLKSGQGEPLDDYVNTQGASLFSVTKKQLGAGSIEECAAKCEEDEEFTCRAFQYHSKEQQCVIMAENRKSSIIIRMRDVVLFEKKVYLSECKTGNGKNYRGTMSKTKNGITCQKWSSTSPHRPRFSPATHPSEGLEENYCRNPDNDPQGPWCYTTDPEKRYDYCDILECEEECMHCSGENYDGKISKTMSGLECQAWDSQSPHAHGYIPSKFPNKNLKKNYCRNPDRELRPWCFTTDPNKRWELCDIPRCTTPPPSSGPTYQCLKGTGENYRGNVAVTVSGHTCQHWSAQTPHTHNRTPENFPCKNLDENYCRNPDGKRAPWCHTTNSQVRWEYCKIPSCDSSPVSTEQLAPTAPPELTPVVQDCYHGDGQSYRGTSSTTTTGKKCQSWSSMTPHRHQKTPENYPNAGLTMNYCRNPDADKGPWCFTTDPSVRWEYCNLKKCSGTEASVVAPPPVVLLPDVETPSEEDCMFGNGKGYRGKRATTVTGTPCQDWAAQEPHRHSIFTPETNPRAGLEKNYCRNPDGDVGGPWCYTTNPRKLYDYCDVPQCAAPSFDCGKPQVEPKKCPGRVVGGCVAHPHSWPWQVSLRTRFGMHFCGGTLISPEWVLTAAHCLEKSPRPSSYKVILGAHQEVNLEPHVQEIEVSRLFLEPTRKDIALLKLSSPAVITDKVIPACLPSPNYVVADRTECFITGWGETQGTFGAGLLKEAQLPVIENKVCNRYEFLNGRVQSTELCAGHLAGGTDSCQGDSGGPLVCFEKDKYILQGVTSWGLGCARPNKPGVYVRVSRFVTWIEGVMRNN
# UniProt P29590: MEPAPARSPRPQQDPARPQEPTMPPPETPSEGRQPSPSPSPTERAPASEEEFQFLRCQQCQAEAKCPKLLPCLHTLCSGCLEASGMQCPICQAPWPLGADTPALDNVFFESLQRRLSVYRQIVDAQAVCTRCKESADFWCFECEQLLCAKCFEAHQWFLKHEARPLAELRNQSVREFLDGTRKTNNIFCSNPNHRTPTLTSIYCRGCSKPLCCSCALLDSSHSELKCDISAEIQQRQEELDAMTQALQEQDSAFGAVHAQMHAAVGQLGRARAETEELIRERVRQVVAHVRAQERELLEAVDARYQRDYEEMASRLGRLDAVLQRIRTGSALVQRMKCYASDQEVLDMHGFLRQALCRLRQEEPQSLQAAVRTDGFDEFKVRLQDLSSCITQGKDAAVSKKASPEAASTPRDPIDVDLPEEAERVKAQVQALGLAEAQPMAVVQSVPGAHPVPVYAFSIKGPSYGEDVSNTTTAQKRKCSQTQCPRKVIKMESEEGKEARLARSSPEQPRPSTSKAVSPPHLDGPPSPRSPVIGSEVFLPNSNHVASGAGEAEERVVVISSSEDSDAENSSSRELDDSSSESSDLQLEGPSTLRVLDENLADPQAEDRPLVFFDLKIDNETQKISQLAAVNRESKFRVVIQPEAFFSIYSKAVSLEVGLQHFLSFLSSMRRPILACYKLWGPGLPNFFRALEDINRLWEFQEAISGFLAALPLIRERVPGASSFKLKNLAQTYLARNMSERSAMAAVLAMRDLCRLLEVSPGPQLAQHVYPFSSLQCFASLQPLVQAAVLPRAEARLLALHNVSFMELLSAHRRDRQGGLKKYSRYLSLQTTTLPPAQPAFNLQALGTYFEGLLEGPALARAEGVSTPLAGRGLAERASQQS
# UniProt P62937, whole entry, looked up: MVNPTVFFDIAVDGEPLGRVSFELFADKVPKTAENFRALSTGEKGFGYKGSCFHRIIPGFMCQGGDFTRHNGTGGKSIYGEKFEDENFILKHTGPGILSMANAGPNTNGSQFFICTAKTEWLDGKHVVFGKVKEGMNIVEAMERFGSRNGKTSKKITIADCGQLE
# UniProt P28340: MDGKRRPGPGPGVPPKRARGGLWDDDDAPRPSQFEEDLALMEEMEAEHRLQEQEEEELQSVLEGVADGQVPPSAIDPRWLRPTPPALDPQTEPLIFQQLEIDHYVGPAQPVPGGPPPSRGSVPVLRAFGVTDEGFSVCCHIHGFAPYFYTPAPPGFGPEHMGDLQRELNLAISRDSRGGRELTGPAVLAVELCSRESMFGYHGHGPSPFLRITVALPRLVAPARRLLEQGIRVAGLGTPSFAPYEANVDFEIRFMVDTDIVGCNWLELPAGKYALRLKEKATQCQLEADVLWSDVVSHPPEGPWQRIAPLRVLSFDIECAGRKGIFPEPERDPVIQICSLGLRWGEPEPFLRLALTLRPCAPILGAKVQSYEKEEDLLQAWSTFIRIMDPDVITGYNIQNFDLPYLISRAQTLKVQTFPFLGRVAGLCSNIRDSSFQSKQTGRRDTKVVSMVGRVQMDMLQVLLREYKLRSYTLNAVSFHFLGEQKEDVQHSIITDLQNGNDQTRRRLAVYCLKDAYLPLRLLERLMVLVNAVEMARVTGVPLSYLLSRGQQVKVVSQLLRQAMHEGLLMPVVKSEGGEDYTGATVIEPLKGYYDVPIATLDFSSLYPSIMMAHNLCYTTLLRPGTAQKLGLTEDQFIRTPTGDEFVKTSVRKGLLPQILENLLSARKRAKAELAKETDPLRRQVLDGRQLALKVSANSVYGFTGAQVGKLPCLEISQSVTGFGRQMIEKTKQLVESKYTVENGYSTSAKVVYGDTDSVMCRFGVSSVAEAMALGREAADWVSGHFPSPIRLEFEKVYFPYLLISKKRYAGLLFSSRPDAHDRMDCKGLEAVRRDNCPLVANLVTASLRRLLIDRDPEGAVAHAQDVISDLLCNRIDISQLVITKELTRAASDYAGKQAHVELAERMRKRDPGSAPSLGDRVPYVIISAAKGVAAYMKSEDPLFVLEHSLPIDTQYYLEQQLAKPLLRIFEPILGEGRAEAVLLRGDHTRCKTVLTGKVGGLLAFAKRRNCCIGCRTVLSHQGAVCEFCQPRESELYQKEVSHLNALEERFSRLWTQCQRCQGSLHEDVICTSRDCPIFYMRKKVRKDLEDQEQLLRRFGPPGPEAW
# UniProt P13797: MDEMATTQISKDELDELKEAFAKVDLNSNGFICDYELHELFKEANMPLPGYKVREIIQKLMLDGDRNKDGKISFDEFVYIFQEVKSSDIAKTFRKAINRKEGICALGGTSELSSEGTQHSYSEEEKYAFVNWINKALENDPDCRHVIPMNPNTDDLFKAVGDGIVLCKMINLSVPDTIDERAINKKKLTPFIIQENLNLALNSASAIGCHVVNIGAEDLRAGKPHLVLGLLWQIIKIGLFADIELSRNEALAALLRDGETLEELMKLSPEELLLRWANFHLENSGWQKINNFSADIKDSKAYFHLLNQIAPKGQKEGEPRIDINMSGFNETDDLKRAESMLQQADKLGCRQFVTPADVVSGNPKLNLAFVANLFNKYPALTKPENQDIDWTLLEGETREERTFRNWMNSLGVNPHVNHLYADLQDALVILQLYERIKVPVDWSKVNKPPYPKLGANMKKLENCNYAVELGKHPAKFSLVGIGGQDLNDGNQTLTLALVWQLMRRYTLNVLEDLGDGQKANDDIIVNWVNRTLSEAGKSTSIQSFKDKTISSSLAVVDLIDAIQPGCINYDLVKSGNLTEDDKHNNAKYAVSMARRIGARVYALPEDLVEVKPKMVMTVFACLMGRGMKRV
# Columns and labels:
# Assay in all cases: log2 fold change, soluble protein after heating vs DMSO (PISA); higher = thermal stabilisation; K562 lysate, 10 uM; active = over 0.2 and 3.5 SD of the protein, either way, in both replicates (recomputed)
# nilotinib = compound: Cc1cn(-c2cc(NC(=O)c3ccc(C)c(Nc4nccc(-c5cccnc5)n4)c3)cc(C(F)(F)F)c2)cn1 [nilotinib]
# In short: (§1)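 Pellets of K562 cells were dounce-homogenised in PBS pH 7.4 with 1 mM MgCl2, and the crude extract was held at 1 mg/mL protein for a 30 min treatment with 10 μM compound. Aliquots were heated for 3 min over 48°C-58°C and pooled before NP-40 was added to 0.5% at 4°C. The supernatant from 21,000xg for 90 min was quantified by TMTpro 16plex LC-MS/MS with channel sums equalised. Values are reported from duplicates as log-two fold change in thermal stability relative to solvent controls.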
# [1] = compound: Cc1nc(Nc2n[nH]c3c2CN(C(=O)N[C@H](CN(C)C)c2ccccc2)C3(C)C)c2sccc2n1
# In short: as §1
# dasatinib = compound: Cc1nc(Nc2ncc(C(=O)Nc3c(C)cccc3Cl)s2)cc(N2CCN(CCO)CC2)n1 [dasatinib]
# In short: as §1
# [2] = compound: Cc1ncc(-c2ccnc(Nc3ccc(S(C)(=O)=O)cc3)n2)n1C(C)C
# In short: as §1
# [3] = compound: Cn1cc(-c2ccc3c(c2)CCN3C(=O)Cc2cccc(C(F)(F)F)c2)c2c(N)ncnc21
# In short: as §1
# quisinostat = compound: Cn1cc(CNCC2CCN(c3ncc(C(=O)NO)cn3)CC2)c2ccccc21 [quisinostat]
# In short: as §1
# tipifarnib = compound: Cn1cncc1[C@@](N)(c1ccc(Cl)cc1)c1ccc2c(c1)c(-c1cccc(Cl)c1)cc(=O)n2C [tipifarnib]
# In short: as §1
# [4] = compound: NC(=O)Nc1cc(-c2cccc(F)c2)sc1C(=O)N[C@H]1CCCNC1
# In short: as §1
# [5] = compound: NC(=O)c1cnc(N[C@@H]2CCCC[C@@H]2N)nc1Nc1cccc(-n2nccn2)c1
# In short: as §1
# [6] = compound: NC1(c2ccc(-c3nc4ccn5c(=O)[nH]nc5c4cc3-c3ccccc3)cc2)CCC1
# In short: as §1
# [7] = compound: NCC(=O)Nc1ccc(-n2nc(C(F)(F)F)cc2-c2ccc3c(ccc4ccccc43)c2)cc1
# In short: as §1
# vorinostat = compound: O=C(CCCCCCC(=O)Nc1ccccc1)NO [vorinostat]
# In short: as §1
# silmitasertib = compound: O=C(O)c1ccc2c(c1)nc(Nc1cccc(Cl)c1)c1ccncc12 [silmitasertib]
# In short: as §1
# [8] = compound: O=C1NC(=O)C(c2cnc3ccccn23)=C1c1cn2c3c(cc(F)cc13)CN(C(=O)N1CCCCC1)CC2
# In short: as §1
# entospletinib = compound: c1cn2cc(-c3ccc4cn[nH]c4c3)nc(Nc3ccc(N4CCOCC4)cc3)c2n1 [entospletinib]
# In short: as §1
Target,log2 fold change (nilotinib),log2 fold change [1],log2 fold change (dasatinib),log2 fold change [2],log2 fold change [3],log2 fold change (quisinostat),log2 fold change (tipifarnib),log2 fold change [4],log2 fold change [5],log2 fold change [6],log2 fold change [7],log2 fold change (vorinostat),log2 fold change (silmitasertib),log2 fold change [8],log2 fold change (entospletinib)
POTEF (UniProt A5A3E0),inactive: 0.021,inactive: -0.041,inactive: -0.016,inactive: 0.014,inactive: -0.029,inactive: -0.003,inactive: 0.044,inactive: 0.004,inactive: 0,inactive: -0.016,inactive: 0.048,inactive: -0.073,inactive: -0.048,inactive: 0.072,inactive: -0.023
POLR1A (UniProt O95602),inactive: -0.022,inactive: 0.103,inactive: -0.034,inactive: 0.075,inactive: 0.06,inactive: -0.005,inactive: 0.02,inactive: 0.051,inactive: -0.008,inactive: -0.066,inactive: 0.027,inactive: 0.024,inactive: 0.01,inactive: 0,inactive: 0.031
POLR2B (UniProt P30876),inactive: -0.027,inactive: 0.01,inactive: -0.065,inactive: 0.004,inactive: 0.003,inactive: -0.057,inactive: -0.012,inactive: 0.027,inactive: -0.004,inactive: -0.03,inactive: 0.03,active: -0.344,inactive: 0.034,inactive: 0.024,inactive: -0.008
POLE2 (UniProt P56282),inactive: 0.02,inactive: 0.013,inactive: 0.007,inactive: 0.022,inactive: 0.015,inactive: -0.005,inactive: 0.099,inactive: 0.037,inactive: -0.065,inactive: -0.157,inactive: -0.013,inactive: -0.053,inactive: -0.003,inactive: -0.016,inactive: 0.007
POLG2 (UniProt Q9UHN1),inactive: 0.056,inactive: 0.031,inactive: 0.043,inactive: 0.041,inactive: -0.001,inactive: -0.055,inactive: -0.005,inactive: 0.013,inactive: -0.005,inactive: 0.026,inactive: 0.02,inactive: 0.027,inactive: -0.049,inactive: -0.01,inactive: 0.01
POP7 (UniProt O75817),inactive: -0.017,inactive: -0.198,inactive: 0.015,inactive: 0.016,inactive: -0.024,inactive: 0.03,inactive: -0.14,inactive: 0.016,inactive: -0.019,inactive: -0.013,inactive: 0.034,inactive: 0.192,inactive: -0.048,inactive: -0.019,inactive: 0.014
POGLUT3 (UniProt Q7Z4H8),inactive: 0.051,inactive: -0.003,inactive: 0.016,inactive: -0.01,inactive: -0.012,inactive: 0.048,inactive: 0.003,inactive: -0.02,inactive: 0.007,inactive: 0.029,inactive: 0.058,inactive: 0.117,inactive: -0.049,inactive: -0.02,inactive: -0.021
PMM2 (UniProt O15305),inactive: -0.025,inactive: 0.009,inactive: 0.019,inactive: -0.034,inactive: 0.011,inactive: 0.02,inactive: 0.044,inactive: 0,inactive: 0.025,inactive: 0.059,inactive: 0.022,inactive: -0.082,inactive: 0.059,inactive: -0.038,inactive: -0.01
POGLUT1 (UniProt Q8NBL1),inactive: -0.01,inactive: -0.027,inactive: 0.005,inactive: 0.019,inactive: 0.014,inactive: 0.073,inactive: 0.032,inactive: 0.005,inactive: -0.009,inactive: 0.049,inactive: -0.02,inactive: 0.078,inactive: 0.058,inactive: 0.023,inactive: -0.029
PLPBP (UniProt O94903),inactive: 0.049,inactive: -0.016,inactive: 0.003,inactive: -0.036,inactive: -0.014,inactive: -0.116,inactive: 0.062,inactive: -0.01,inactive: 0.012,inactive: -0.025,inactive: -0.091,inactive: 0.014,inactive: 0.001,inactive: 0.009,inactive: -0.001
POLD4 (UniProt Q9HCU8),inactive: 0.083,inactive: 0,inactive: -0.011,inactive: 0.003,inactive: -0.025,inactive: 0.039,inactive: -0.059,inactive: 0.013,inactive: 0.036,inactive: -0.007,inactive: -0.068,inactive: -0.027,inactive: -0.029,inactive: -0.094,inactive: -0.063
PLG (UniProt P00747),inactive: 0.079,inactive: -0.35,inactive: 0.074,inactive: 0.022,inactive: -0.191,inactive: -0.033,inactive: -0.087,inactive: -0.025,inactive: -0.023,inactive: 0.044,inactive: 0.119,inactive: -0.092,inactive: -0.117,inactive: 0,inactive: -0.067
PML (UniProt P29590),inactive: 0.014,inactive: 0.009,inactive: -0.014,inactive: -0.009,inactive: 0,inactive: 0.032,inactive: -0.007,inactive: -0.038,inactive: 0.026,inactive: 0.003,inactive: -0.006,inactive: -0.107,inactive: 0.017,inactive: -0.047,inactive: 0.014
POLR2F (UniProt P61218),inactive: 0.023,inactive: -0.019,inactive: 0.274,inactive: 0.107,inactive: -0.015,inactive: -0.034,inactive: 0.015,inactive: 0.008,inactive: -0.052,inactive: -0.021,inactive: -0.019,inactive: 0.171,inactive: 0.008,inactive: 0.027,inactive: -0.086
PPIA (UniProt P62937),inactive: -0.037,inactive: 0.007,inactive: -0.008,inactive: -0.009,inactive: -0.015,inactive: 0.029,inactive: 0.021,inactive: -0.007,inactive: 0.025,inactive: 0.007,inactive: -0.073,inactive: -0.024,inactive: 0.027,inactive: -0.017,inactive: 0.019
POP5 (UniProt Q969H6),inactive: 0.047,inactive: 0.062,inactive: 0.025,inactive: -0.026,inactive: -0.031,inactive: -0.043,inactive: 0.019,inactive: 0.042,inactive: 0.013,inactive: 0.089,inactive: -0.034,inactive: -0.059,inactive: 0.05,inactive: 0.048,inactive: 0.072
PLIN3 (UniProt O60664),inactive: 0.029,inactive: -0.001,inactive: 0.006,inactive: 0.015,inactive: -0.012,inactive: 0.024,inactive: 0.031,inactive: -0.016,inactive: -0.015,inactive: 0.052,inactive: 0.008,inactive: 0.108,inactive: -0.002,inactive: -0.001,inactive: 0.002
PMF1 (UniProt Q6P1K2),inactive: 0.018,inactive: -0.034,inactive: 0.044,inactive: -0.02,inactive: -0.052,inactive: 0.073,inactive: 0,inactive: -0.036,inactive: 0.011,inactive: 0.027,inactive: 0.011,inactive: 0.001,inactive: -0.024,inactive: -0.024,inactive: -0.044
PMVK (UniProt Q15126),inactive: -0.082,inactive: 0.002,inactive: 0.021,inactive: 0.028,inactive: 0.023,inactive: 0.018,inactive: 0.029,inactive: 0.009,inactive: 0.088,inactive: 0.022,inactive: 0.021,inactive: -0.221,inactive: 0.076,inactive: -0.072,inactive: 0.004
POLD1 (UniProt P28340),inactive: 0.029,inactive: -0.004,inactive: -0.023,inactive: -0.011,inactive: 0.011,inactive: 0.01,inactive: -0.011,inactive: 0.015,inactive: 0.006,inactive: 0.003,inactive: 0.016,active: -0.245,inactive: 0.016,inactive: 0.005,inactive: -0.009
PLS3 (UniProt P13797),inactive: 0.029,inactive: 0.026,inactive: 0.018,inactive: 0.024,inactive: -0.019,inactive: -0.024,inactive: 0.011,inactive: -0.004,inactive: -0.001,inactive: -0.013,inactive: 0.019,inactive: 0.125,inactive: -0.007,inactive: 0.008,inactive: 0.009

# Single records (already shown). Values in the order: log2 fold change (nilotinib)	log2 fold change [1]	log2 fold change (dasatinib)	log2 fold change [2]	log2 fold change [3]	log2 fold change (quisinostat)	log2 fold change (tipifarnib)	log2 fold change [4]	log2 fold change [5]	log2 fold change [6]	log2 fold change [7]	log2 fold change (vorinostat)	log2 fold change (silmitasertib)	log2 fold change [8]	log2 fold change (entospletinib)
# PLS3 (UniProt P13797) as listed: inactive: 0.029	inactive: 0.026	inactive: 0.018	inactive: 0.024	inactive: -0.019	inactive: -0.024	inactive: 0.011	inactive: -0.004	inactive: -0.001	inactive: -0.013	inactive: 0.019	inactive: 0.125	inactive: -0.007	inactive: 0.008	inactive: 0.009
# POP7 (UniProt O75817) as listed: inactive: -0.017	inactive: -0.198	inactive: 0.015	inactive: 0.016	inactive: -0.024	inactive: 0.03	inactive: -0.14	inactive: 0.016	inactive: -0.019	inactive: -0.013	inactive: 0.034	inactive: 0.192	inactive: -0.048	inactive: -0.019	inactive: 0.014

# Reference: the supplement of paper PMC10849652
